Amino acid sequences for entries named in this document (tags omitted). A change or cut given only in a name is not applied to a line headed by its entry.
UniProt Q15172: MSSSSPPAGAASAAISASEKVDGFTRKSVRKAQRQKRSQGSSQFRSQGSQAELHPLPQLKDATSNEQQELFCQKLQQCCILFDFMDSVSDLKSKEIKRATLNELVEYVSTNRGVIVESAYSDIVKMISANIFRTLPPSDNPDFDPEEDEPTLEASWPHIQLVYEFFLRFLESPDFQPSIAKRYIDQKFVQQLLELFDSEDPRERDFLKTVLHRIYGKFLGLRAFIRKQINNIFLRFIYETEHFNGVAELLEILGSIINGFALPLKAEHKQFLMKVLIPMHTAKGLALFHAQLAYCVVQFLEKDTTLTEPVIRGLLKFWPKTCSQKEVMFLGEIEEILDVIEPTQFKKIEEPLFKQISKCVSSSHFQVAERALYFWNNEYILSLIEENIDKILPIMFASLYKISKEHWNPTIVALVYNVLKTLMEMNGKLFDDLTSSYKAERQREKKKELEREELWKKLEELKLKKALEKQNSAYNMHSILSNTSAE
UniProt P67775: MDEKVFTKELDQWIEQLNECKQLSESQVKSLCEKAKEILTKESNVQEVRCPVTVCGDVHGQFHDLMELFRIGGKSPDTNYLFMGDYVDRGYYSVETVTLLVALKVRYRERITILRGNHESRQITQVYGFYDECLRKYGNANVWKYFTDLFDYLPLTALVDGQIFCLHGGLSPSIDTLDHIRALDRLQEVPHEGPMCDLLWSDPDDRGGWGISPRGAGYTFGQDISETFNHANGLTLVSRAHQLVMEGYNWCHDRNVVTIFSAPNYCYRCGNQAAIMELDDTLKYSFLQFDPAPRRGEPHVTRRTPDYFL

According to PMC10465527:

Target: B56α expressed from V245 pCEP-4HA B56α (UniProt Q15172)
Assay: co-IP; B56α antibody; lysates of HEK293-T cells co-transfected with B56α and HA-MED1 wild type or 2A mutants, 72 h post transfection; immunoblot

binding: binds
Substance: PP2A-C (catalytic C subunit of the AC dimer; methylation state not told) (from UniProt P67775)

No constants are given. Whether binding was seen depends on the method and setting. Binding seen in cells or lysates may run through a third protein. A result given as binding can be weak or reduced; the word gives no strength.
